Laboratory results published in publication PMC11384143.
No constants are given. Whether binding was seen depends on the method and setting. In cells and extracts the contact can be indirect. Binding calls can cover weak binding; strength is not graded here.

Amino acid sequences for entries named in this document (tags omitted). A change or cut given only in a name is not applied to a line headed by its entry. Residues count along the entry.
UniProt P78324, residues 31-504: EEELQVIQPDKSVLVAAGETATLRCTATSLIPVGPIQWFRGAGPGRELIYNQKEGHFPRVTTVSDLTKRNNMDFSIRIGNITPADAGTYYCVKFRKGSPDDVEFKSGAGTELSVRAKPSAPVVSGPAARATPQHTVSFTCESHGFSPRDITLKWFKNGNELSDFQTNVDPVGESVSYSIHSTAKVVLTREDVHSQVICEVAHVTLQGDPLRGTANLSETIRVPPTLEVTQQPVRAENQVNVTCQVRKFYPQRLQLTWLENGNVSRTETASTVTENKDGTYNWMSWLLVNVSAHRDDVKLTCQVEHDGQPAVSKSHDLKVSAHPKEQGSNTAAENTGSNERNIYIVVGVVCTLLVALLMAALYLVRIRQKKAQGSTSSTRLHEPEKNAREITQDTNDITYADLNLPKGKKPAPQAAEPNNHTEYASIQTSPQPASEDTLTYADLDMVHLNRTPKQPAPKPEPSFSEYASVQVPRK
UniProt P29350: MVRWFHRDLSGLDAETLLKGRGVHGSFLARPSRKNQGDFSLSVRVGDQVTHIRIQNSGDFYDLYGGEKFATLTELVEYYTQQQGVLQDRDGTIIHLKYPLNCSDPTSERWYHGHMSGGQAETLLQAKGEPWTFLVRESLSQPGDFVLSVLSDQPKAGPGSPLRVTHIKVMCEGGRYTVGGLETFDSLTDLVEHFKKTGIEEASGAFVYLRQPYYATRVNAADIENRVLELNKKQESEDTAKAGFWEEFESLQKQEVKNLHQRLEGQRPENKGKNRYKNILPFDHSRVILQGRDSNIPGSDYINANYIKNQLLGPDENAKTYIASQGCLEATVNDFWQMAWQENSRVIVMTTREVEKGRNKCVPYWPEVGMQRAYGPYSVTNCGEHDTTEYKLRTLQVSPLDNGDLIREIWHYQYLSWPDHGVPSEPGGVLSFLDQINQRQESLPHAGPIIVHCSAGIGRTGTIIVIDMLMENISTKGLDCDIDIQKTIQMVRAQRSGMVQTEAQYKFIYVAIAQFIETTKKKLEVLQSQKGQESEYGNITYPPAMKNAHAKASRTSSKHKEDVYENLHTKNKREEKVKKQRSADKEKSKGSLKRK

Target: full-length huSIRPα V1 with a small β-galactosidase fragment (ED) fused to its C-terminal (human) (UniProt P78324)
Assay: split reporter; β-galactosidase fragment complementation (SIRPα/SHP-1 recruitment assay): K562/SHP-1+hSIRPα+CD47− cells with Jurkat cells at 1:4, overnight at 37°C; chemiluminescence

binding: binds
Substance: SH2-domain of SHP-1 engineered with the complementing β-galactosidase fragment (from UniProt P29350) (domain or fragment)
